# Inconclusive results, whose numbers are uncertain, are shown with a selection of clear calls. For part of these data: A potency beside an inconclusive call is a rough fit, not a confirmed value. Activity calls are given as the source filed them. Unless noted, the call rests on the fitted dose curve; in most records, active means well fitted curve in the direction sought with a large enough effect; inconclusive means small, poorly fitted or top-dose-only effect, or another doubt; inactive means no such curve, though single readings can be large; an effect the other way counts as inactive or inconclusive.
# The chains behind the UniProt entries cited, without tags or fusion partners. Where a name states a change or a piece, a line headed by the entry shows the natural chain unless it says otherwise.
# UniProt O89049, whole entry, looked up: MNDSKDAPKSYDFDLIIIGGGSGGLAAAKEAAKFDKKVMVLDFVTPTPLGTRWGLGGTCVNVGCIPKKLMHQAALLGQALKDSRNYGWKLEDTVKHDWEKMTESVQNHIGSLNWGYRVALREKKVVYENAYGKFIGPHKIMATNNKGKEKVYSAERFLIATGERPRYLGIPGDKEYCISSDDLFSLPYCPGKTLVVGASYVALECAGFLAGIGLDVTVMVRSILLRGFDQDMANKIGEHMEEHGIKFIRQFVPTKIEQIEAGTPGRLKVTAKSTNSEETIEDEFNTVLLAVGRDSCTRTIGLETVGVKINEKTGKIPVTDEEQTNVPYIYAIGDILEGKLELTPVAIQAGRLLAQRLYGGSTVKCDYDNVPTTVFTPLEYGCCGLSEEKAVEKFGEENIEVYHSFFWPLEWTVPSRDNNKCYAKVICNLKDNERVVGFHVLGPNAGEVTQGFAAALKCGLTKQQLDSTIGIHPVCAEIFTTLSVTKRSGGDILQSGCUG
# UniProt P21728, whole entry, looked up: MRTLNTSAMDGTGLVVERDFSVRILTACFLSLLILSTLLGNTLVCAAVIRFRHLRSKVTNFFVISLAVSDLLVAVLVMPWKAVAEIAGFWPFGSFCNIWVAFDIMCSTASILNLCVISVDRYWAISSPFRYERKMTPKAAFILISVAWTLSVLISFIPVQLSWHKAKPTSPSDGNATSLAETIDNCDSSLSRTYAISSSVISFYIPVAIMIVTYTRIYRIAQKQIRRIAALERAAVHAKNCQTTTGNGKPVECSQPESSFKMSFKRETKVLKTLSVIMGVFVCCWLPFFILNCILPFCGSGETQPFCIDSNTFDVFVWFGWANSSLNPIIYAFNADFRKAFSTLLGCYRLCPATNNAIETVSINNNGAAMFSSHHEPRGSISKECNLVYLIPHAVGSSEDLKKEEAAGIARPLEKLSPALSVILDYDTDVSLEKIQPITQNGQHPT
# UniProt P04150: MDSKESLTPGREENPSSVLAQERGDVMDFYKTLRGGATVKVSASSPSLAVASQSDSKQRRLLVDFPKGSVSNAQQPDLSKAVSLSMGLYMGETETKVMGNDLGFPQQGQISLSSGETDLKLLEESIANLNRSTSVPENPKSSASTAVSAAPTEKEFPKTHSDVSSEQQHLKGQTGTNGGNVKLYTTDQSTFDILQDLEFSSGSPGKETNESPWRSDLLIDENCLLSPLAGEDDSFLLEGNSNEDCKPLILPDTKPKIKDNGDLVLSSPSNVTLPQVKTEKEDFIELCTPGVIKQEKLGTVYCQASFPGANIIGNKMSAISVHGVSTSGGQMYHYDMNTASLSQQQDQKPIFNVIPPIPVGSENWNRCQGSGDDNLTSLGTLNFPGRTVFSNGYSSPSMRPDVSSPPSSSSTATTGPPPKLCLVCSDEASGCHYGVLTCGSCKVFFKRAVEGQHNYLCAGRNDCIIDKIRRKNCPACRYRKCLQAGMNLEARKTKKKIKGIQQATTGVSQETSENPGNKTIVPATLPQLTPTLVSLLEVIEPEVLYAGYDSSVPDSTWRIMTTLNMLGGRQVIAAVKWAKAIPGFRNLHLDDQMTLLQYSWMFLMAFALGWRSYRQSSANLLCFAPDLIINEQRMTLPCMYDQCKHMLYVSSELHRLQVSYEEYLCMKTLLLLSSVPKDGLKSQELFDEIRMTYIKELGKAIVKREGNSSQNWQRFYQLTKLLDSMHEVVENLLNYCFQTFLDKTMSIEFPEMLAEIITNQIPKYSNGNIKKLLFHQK
# UniProt Q12809: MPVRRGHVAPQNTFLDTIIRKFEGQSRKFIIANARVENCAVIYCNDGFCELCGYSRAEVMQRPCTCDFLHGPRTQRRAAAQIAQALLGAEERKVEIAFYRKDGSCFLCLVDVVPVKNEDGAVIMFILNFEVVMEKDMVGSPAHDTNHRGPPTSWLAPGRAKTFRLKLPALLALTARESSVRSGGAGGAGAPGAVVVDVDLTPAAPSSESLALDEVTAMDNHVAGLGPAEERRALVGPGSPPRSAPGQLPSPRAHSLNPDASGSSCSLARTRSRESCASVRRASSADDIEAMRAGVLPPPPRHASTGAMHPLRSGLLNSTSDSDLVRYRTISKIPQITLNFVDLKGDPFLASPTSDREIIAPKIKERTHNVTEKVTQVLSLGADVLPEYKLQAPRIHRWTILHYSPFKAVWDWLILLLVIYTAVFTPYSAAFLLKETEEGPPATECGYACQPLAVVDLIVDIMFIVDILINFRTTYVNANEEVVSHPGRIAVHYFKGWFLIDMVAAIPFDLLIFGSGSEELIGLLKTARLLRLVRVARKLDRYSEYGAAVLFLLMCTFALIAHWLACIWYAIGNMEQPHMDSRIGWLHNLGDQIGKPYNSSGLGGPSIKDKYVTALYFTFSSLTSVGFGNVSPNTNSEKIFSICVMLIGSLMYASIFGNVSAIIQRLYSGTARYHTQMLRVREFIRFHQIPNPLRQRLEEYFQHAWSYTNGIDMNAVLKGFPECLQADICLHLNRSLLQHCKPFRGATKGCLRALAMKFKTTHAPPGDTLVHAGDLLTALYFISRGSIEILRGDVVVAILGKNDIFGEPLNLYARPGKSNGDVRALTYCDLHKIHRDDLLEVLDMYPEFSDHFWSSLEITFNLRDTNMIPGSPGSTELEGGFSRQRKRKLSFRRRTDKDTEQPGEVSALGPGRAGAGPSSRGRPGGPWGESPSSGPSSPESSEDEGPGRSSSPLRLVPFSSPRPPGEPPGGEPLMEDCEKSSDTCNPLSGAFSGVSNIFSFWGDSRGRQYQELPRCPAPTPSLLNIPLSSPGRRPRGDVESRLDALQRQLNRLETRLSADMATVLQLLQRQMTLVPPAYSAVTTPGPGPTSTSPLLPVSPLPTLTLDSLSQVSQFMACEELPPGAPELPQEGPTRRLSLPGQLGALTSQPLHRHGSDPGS
# Columns and labels:
# [1] = Quantitative High-Throughput drug screen in 47 multiple myeloma cell lines against the NCATS MIPE library collection: OCIMY5_PLB cell viability assay (AID 1918988); conditions: OCI-MY5 myeloma viability, ATP luminescence, 48 h; series mostly up to 45.8 µM; further: potency means the concentration at half of the fitted maximal effect; nearly all actives have a fitted effect of over 65% in size
# Procedure, shortened: (§1)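 Myeloma cells (500/well) treated with MIPE 4.0 compounds for 48 h at 37 °C, 5% CO2. Viability read as ATP via CellTiter-Glo luminescence after 5 min at RT; DMSO-only wells = 100%, media-only = 0% viability.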
# [2] = qHTS of pediatric cancer cell lines to identify multiple opportunities for drug repurposing: Confirmatory screen for Rh41 cells (AID 1347123); conditions: Rh41 rhabdomyosarcoma cells, viability/cytotoxicity qHTS; series mostly up to 45.9 µM; further: potency means the concentration at half of the fitted maximal effect; nearly all actives have a fitted effect of over 60% in size
# Procedure, shortened: (§2)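 Cells (500-1,000/well) in growth media were settled 5 h at 37 degrees C, then given compounds for 48 h. Viability was read as CellTiter-Glo luminescence. Primary runs used MIPE at 11 points (0.78 nM-46 µM) and NPC at 8 points (0.59 nM-46 µM); follow-ups used 11 points.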
# [3] = Quantitative High-Throughput drug screen in 47 multiple myeloma cell lines against the NCATS MIPE library collection: JIM3_ECACC cell viability assay (AID 1918963; further: potency means the concentration at half of the fitted maximal effect; nearly all actives have a fitted effect of over 35% in size); conditions: JIM3 myeloma viability, CellTiter-Glo ATP, 48 h; series mostly up to 45.8 µM
# Procedure, shortened: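 CellTiter-Glo luminescence (ATP) after 48 h compound exposure, 37C/5% CO2; 500 cells/well; MIPE 4.0 approved/investigational drugs pinned in; DMSO = 100%, media only = 0% viability.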
# [4] = Quantitative High-Throughput drug screen in 47 multiple myeloma cell lines against the NCATS MIPE library collection: INA6_PLB cell viability assay (AID 1918965; further: potency means the concentration at half of the fitted maximal effect; nearly all actives have a fitted effect of over 55% in size); conditions: INA6 myeloma viability, CellTiter-Glo ATP luminescence, 48 h; series mostly up to 45.8 µM
# Procedure, shortened: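 Myeloma cells (500 per well) were exposed to MIPE 4.0 compounds by pin transfer and incubated 48 hours at 37C, 5% CO2. Viability was read as ATP by CellTiter-Glo luminescence, normalised to DMSO (100%) and media-only (0%) wells.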
# [5] = Quantitative High-Throughput drug screen in 47 multiple myeloma cell lines against the NCATS MIPE library collection: PCM6_Riken cell viability assay (AID 1919870); conditions: CellTiter-Glo ATP, 48 h; series mostly up to 45.8 µM; further: potency means the concentration at half of the fitted maximal effect; nearly all actives have a fitted effect of over 30% in size
# Procedure, shortened: as §1
# [6] = target: Thioredoxin reductase 1, cytoplasmic (Rattus norvegicus) (UniProt O89049); assay: qHTS Assay for Inhibitors of Mammalian Selenoprotein Thioredoxin Reductase 1 (TrxR1) (AID 488773); conditions: purified TrxR1 enzyme activity; Potency: inhibition; series mostly up to 57.1 µM; further: potency means the concentration at half of the fitted maximal effect; nearly all actives have a fitted effect of over 40% in size
# Procedure, shortened: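 Steps: enzyme (90 nM) plus NADPH (400 uM final), 5 min at ~22 deg C; compound added, 15 min; selenite (400 uM final) added; fluorescence followed for 8 min. Concentration-response curves derived from the normalized delta values.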
# [7] = target: D(1A) dopamine receptor (Homo sapiens) (UniProt P21728); assay: HTS Assay for Allosteric Agonists of the Human D1 Dopamine Receptor: Primary Screen for Antagonists (AID 488983); conditions: D1 receptor cell assay, antagonist mode, qHTS titration; series mostly up to 41.8 µM;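 further: calcium flux response to an EC80 dopamine challenge measured with no-wash dye; potency means the concentration at half of the fitted maximal effect; nearly all actives have a fitted effect of over 65% in size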
# Procedure, shortened: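 Screening of inducible HEK293 T-REx D1 cells: compound first, EC80 dopamine 180 s later, each phase read kinetically for calcium over 180 s.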
# [8] = Natriuretic polypeptide receptor (hNpr1) antagonism - Pilot counterscreen GloSensor control cell line (AID 1347045; calls by dose curve; further: potency means the concentration at half of the fitted maximal effect); conditions: HEK293 cGMP GloSensor cells, SNP-stimulated luminescence, 20 min; series mostly up to 38.3 µM
# Procedure, shortened: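 This counterscreen uses HEK293 cells expressing the GIP/pGS-40F cGMP biosensor. Compound-treated cells are challenged with 50 uM sodium nitroprusside, and the luciferase signal is compared before and after stimulation.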
# [9] = NCATS anti-infectives library activity on the primary C. elegans qHTS viability assay (AID 1745855; calls by dose curve); conditions: C. elegans worm area imaging, day 7; series mostly up to 41.8 µM
# Procedure, shortened: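 Viability is taken from GFP fluorescence of PE254-GFP-FLuc C. elegans imaged by laser cytometry over 7 days. Ten L1 worms per well grow at 21 °C on TOP10 E. coli capsules with titrated compound; levamisole marks toxicity.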
# [10] = HepG2 cells viability qHTS for Zika virus inhibitors (AID 1347168); conditions: Zika counter-screen; series mostly up to 45.9 µM; further: potency means the concentration at half of the fitted maximal effect
# Procedure, shortened: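 Counter-screen for cytotoxicity of hits from NS2B-NS3 protease qHTS. Overnight-attached cells (2.5 x 10^5 cells/mL, DMEM/4% FBS) were dosed in titration, incubated 24 to 48 hours, then assayed by CellTiter Glo.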
# [11] = Quantitative High-Throughput drug screen in 47 multiple myeloma cell lines against the NCATS MIPE library collection: MM1S_ATCC cell viability assay (AID 1918980); conditions: MM1S myeloma viability, CellTiter-Glo ATP luminescence, 48 h; series mostly up to 45.8 µM; further: potency means the concentration at half of the fitted maximal effect; nearly all actives have a fitted effect of over 45% in size
# Procedure, shortened: as §1
# [12] = system: Zika virus NS2B-NS3 protease (linked); assay: 384 well plate NINDS AMC confirmatory qHTS for Zika virus inhibitors (AID 1347163); conditions: Recombinant NS2B-NS3 protease, Ac-VKTGKR-AMC fluorescence; series mostly up to 100 µM; further: potency means the concentration at half of the fitted maximal effect; nearly all actives have a fitted effect of over 50% in size
# Procedure, shortened: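 Linked protease 5/30/60 nM final; cpds up to 1 mM final, ~15 min preinc. Substrate Ac-VKTGKR-AMC 30 microM final. RT, dark, 25 min; FI ex 355/em 460; normalized to no-enzyme/no-inhibitor ctrls.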
# [13] = system: Zika virus NS2B-NS3 protease (linked construct); assay: 384 well plate NINDS Rhodamine confirmatory qHTS for Zika virus inhibitors (AID 1347164); conditions: rhodamine-110 peptide substrate fluorescence; series mostly up to 100 µM;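 further: fluorescence from protease cleavage of Ac-LKRR-rhodamine 110 substrate; potency means the concentration at half of the fitted maximal effect; nearly all actives have a fitted effect of over 65% in size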
# Procedure, shortened: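 Linked protease at a final 5 nM, 30 nM or 60 nM was preincubated ~15 min with compounds, then given 10 microM Ac-LKRR-Rhodamine 110. Fluorescence (ex 485/em 538 nm) after 25 min in the dark at room temperature.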
# [14] = qHTS of pediatric cancer cell lines to identify multiple opportunities for drug repurposing: Confirmatory screen for SK-N-MC cells (AID 1347111); conditions: SK-N-MC cell viability; series mostly up to 45.9 µM;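 further: potency means the concentration at half of the fitted maximal effect; cells exposed to compound for 48 h before the readout; nearly all actives have a fitted effect of over 70% in size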
# Procedure, shortened: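 Metabolically active cells were quantified by ATP-dependent luminescence (CellTiter-Glo, 15 min at room temperature) following 48 h treatment. Cells had been plated at 500-1,000 per well and settled for 5 h beforehand.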
# [15] = qHTS of pediatric cancer cell lines to identify multiple opportunities for drug repurposing: Confirmatory screen for LAN-5 cells (AID 1347113); conditions: LAN-5 neuroblastoma cell viability; series mostly up to 45.9 µM; further: potency means the concentration at half of the fitted maximal effect; nearly all actives have a fitted effect of over 65% in size
# Procedure, shortened: as §2
# [16] = target: Glucocorticoid receptor (Homo sapiens) (UniProt P04150); assay: GR-GFP Redistribution (AID 450;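 active means compounds whose dose series gives a full or clear partial fitted curve of increased nuclear translocation; inconclusive means weak partial curve or effect only at the top dose; inactive means no dose-dependent translocation response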; further: potency means the concentration at half of the fitted maximal effect); conditions: U2OS GR-GFP nuclear translocation, laser cytometry, 2 h
# [17] = Cell Viability qHTS for small molecule stabilizers of the endoplasmic reticulum resident proteome (AID 1508629); conditions: cell viability counter-screen, 100 nM thapsigargin for final 4 h;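 further: potency means the concentration at half of the fitted maximal effect; compound exposure about 46 h in total before the viability read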
# [18] = target: Voltage-gated inwardly rectifying potassium channel KCNH2 (Homo sapiens) (UniProt Q12809); assay: qHTS Assay for Small Molecule Inhibitors of the Human hERG Channel Activity (AID 588834); conditions: U2OS BacMam hERG, FluxOR thallium flux fluorescence;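 further: potency means the concentration at half of the fitted maximal effect; lower thallium flux fluorescence means stronger hERG block; nearly all actives have a fitted effect of over 50% in size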
# Procedure, shortened: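 U2OS cells transduced with hERG via BacMam (MOI ~100), plated 2000/well, loaded with FluxOR thallium dye, compound ~10 min, then stimulation buffer; fluorescence decrease read kinetically; AC50 from Hill fits.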
structure (smiles),measurement,setting,value
CCS(=O)(=O)N1CC(CC#N)(n2cc(-c3ncnc4[nH]ccc34)cn2)C1,Potency,[1],active: 7.43 µM
Cc1nc(N)ncc1-c1nc(N2CCOCC2)c2sc(C(C)(C)O)cc2n1,Potency,[2],"inconclusive: 0.165 µM [cytotoxic, full curve, poor fit]"
same,Potency,[3],"inconclusive: 0.469 µM [cytotoxic, full curve]"
same,Potency,[4],active: 3.72 µM
same,Potency,[5],"inconclusive: 4.69 µM [cytotoxic, full curve]"
Clc1ccc2c(c1)N=C(N1CCNCC1)c1ccccc1N2,Potency,[6],"inconclusive: 42.3 µM [inhibitor, single point]"
same,Potency,[7],active: 0.562 µM
same,Potency,[8],"inconclusive: 4.14 µM [inhibitor, full curve, poor fit]"
same,Potency,[9],inactive
CN[C@@H]1C[C@H]2O[C@@](C)([C@H]1OC)n1c3ccccc3c3c4c(c5c6ccccc6n2c5c31)C(=O)N[C@H]4O,Potency,[10],active: 10.4 µM
same,Potency,[11],active: 0.332 µM
O=C(O)c1ccc(O)c2ncc(N3CCCN(CCc4cccc5ccccc45)CC3)cc12,Potency,[12],"inconclusive: 89.1 µM [inhibitor, partial curve, poor fit]"
same,Potency,[13],active: 3.55 µM
COc1ccc(F)c(F)c1C(=O)c1cnc(NC2CCN(S(C)(=O)=O)CC2)nc1N,Potency,[14],active: 1.31 µM
same,Potency,[15],"inconclusive: 2.08 µM [cytotoxic, full curve, poor fit]"
CNCC[C@@H](Oc1ccccc1C)c1ccccc1,Potency,[16],inconclusive: 30.8 µM [single point]
O=C1OC2(c3ccccc31)c1cc(I)c(O)c(I)c1Oc1c2cc(I)c(O)c1I,Potency,[17],"inconclusive: 0.126 µM [rising, full curve, poor fit]"
c1ccc(CN(CC2=NCCN2)c2ccccc2)cc1,Potency,[18],"inconclusive: 15.8 µM [inhibitor, partial curve, poor fit]"

# Some of the entries so far, as tab-separated lines.
structure (smiles)	measurement	setting	value
CCS(=O)(=O)N1CC(CC#N)(n2cc(-c3ncnc4[nH]ccc34)cn2)C1	Potency	[1]	active: 7.43 µM
CN[C@@H]1C[C@H]2O[C@@](C)([C@H]1OC)n1c3ccccc3c3c4c(c5c6ccccc6n2c5c31)C(=O)N[C@H]4O	Potency	[10]	active: 10.4 µM

# From PubChem BioAssay (NCATS)
